# Laboratory results: PubChem BioAssay AID1259254 (NCATS, 2017)
# Screen: 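Finding genes that stop cells copying their DNA twice in one cycle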 (primary screen)
# Cell system: human HCT116 colorectal cancer cells
# Reagent: single siRNA against human genes
# Timing: 3 days
# Measured: 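Imaged Hoechst DNA stain sorts each cell into a cycle phase by DNA amount; per plate, G2 fraction set to 0% for non-targeting and 100% for GMNN siRNA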
# Direction: G2 robust z-score and G2 cells, % of GMNN control: higher = more G2 cells, more excess DNA replication; raw share of cells in G2: higher = larger share of cells with G2 DNA content
# Active means: 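An siRNA counts as active if its G2 robust z-score lies at least 5 MADs above the screen median; here such calls match roughly 38% of GMNN control or more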
# Here is a random part of about 59,000 deposited reagents. About 1,550 of them (2.6%) were called active. 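G2 share is only a proxy for re-replication; each gene was hit by three separate siRNAs, and active genes were retested.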 Raw values vary from plate to plate and are shown uncorrected. Entries without a mark were called inactive. Reagents against one gene are numbered here. The record does not give: the amount of reagent.
Target gene,siRNA no.,G2 robust z-score,"G2 cells, % of GMNN control",raw share of cells in G2 (%)
HOXA6 (homeobox A6),1,-0.112,2.18,6.51
HOXA6 (homeobox A6),2,4.58,35.2,17.1
HOXA6 (homeobox A6),3,0.943,9.6,8.53
CCDC9 (coiled-coil domain containing 9),1,2.1,17.7,11.1
CCDC9 (coiled-coil domain containing 9),2,-0.0322,2.74,5.13
CCDC9 (coiled-coil domain containing 9),3,-0.667,-1.72,2.7
MAPK7 (mitogen-activated protein kinase 7),1,-0.94,-3.65,4.4
MAPK7 (mitogen-activated protein kinase 7),2,-0.0859,2.36,6.21
MAPK7 (mitogen-activated protein kinase 7),3,-0.637,-1.52,3.49
TPBG (trophoblast glycoprotein),1,8.16 (active),60.4,31.1
TPBG (trophoblast glycoprotein),2,-0.876,-3.19,3.42
TPBG (trophoblast glycoprotein),3,-0.703,-1.98,3.53
ITFG2-AS1 (ITFG2 antisense RNA 1),1,0.889,9.22,7
ITFG2-AS1 (ITFG2 antisense RNA 1),2,-0.383,0.276,3.15
ITFG2-AS1 (ITFG2 antisense RNA 1),3,-0.935,-3.61,2.17
CIMIP1 (ciliary microtubule inner protein 1),1,2.24,18.7,11.2
CIMIP1 (ciliary microtubule inner protein 1),2,-0.866,-3.13,2.11
CIMIP1 (ciliary microtubule inner protein 1),3,-0.212,1.48,3.11
VSTM5 (V-set and transmembrane domain containing 5),1,-0.375,0.328,3.88
VSTM5 (V-set and transmembrane domain containing 5),2,-0.4,0.151,3.47
VSTM5 (V-set and transmembrane domain containing 5),3,-0.474,-0.369,4.48
CENPVL1 (centromere protein V like 1),1,-0.65,-1.61,3.22
CENPVL1 (centromere protein V like 1),2,-0.873,-3.18,2.02
CENPVL1 (centromere protein V like 1),3,1.21,11.5,9.55
MRPL50 (mitochondrial ribosomal protein L50),1,-0.912,-3.45,2.05
MRPL50 (mitochondrial ribosomal protein L50),2,0.993,9.95,7.17
MRPL50 (mitochondrial ribosomal protein L50),3,0.932,9.52,8.28
SLA (Src like adaptor),1,0.345,5.4,7.27
SLA (Src like adaptor),2,-0.288,0.944,4.59
SLA (Src like adaptor),3,-0.279,1,3.72

Laid out differently: entries from further up.
CENPVL1 (centromere protein V like 1) #2: G2 robust z-score = -0.873; G2 cells, % of GMNN control = -3.18; raw share of cells in G2 (%) = 2.02
CENPVL1 (centromere protein V like 1) #3: G2 robust z-score = 1.21; G2 cells, % of GMNN control = 11.5; raw share of cells in G2 (%) = 9.55
